According to patent publication EP1058559B1, “COMBINATION OF A SELECTIVE NMDA NR2B ANTAGONIST AND A COX-2 INHIBITOR” (MERCK SHARP & DOHME LTD., priority 1998, dated 1999):

Tested on: motor co-ordination
Test: accelerating rotarod (motor co-ordination) with observed behaviour
Assay type: in vivo, male Sprague Dawley rats
Conditions: ID50 motor impairment / ID50 inhibition of allodynia
Procedure: The present Example examined whether NMDA NR2B receptor antagonists have an improved therapeutic window over unselective NNIDA/glycine antagonists and other ion channel blockers including lamotrigine and gabapentin, by comparing their anti-algesic effects with their liability to induce motor impairment in rats. Anti-algesic activity was assessed using an assay of neuropathic pain in rats (sciatic nerve ligation) and in a carrageenan-induced hyperalgesia assay. Motor impairment was measured using an accelerating rotarod.
For sciatic nerve ligation, male Sprague Dawley rats (180-220g) were anaesthetised with isofluorane, the left sciatic nerve exposed and 4 chromic catgut (4.0) ligatures were tied loosely around the nerve (spaced 1-2 mm apart) immediately proximal to the point of trifurcation. In shamoperated animals, the same dissection was performed but without ligation. Responses to mechanical pressure were assessed 7 days after ligation using a modified Randall-Selitto algesiometer in which constant force of […] was applied to the hind paw and the latency to struggle was recorded as the reaction time. Mechanical allodynia was defined as the difference in reaction time for sham and ligature rats. Reaction times for drug treated rats were expressed as a percentage of this response. Compounds were administered 1 h before the test. In the carrageenan-induced hyperalgesia assay, male Sprague Dawley rats (100-120 g) received an intraplantar injection of carrageenan (4.5 mg) and mechanical thresholds were determined 3 h later using a modified Ugo Basile Algesiometer. Control rats received saline (0.15 ml i.pl.). Hyperalgesia was defined as the difference in vocalisation threshold for saline- and carrageenan-injected rats. Paw pressure scores for drug-treated rats were expressed as a percentage of this response. Compounds were administered 2 h after carrageenan. To determine the effects of the compounds on motor co-ordination, male Sprague Dawley rats (160-180 g) were first trained to remain for 120 s on the rotarod apparatus revolving at 12 r.p.m. on the morning before the test. Animals then received drug treatments and 1 h later were placed on an accelerating rotarod (increasing from 4 - 40 r.p.m. during a 5 min period) and the time the rats were able to remain on the rotarod recorded. Lamotrigine, gabapentin and (±)-CP-101,606 were suspended in 0.5% methocel and administered orally (1 ml/kg). Ifenprodil, L-701,324, L-687,414 and (±)-Ro25-6981 were dissolved or suspended in 0.5% methocel and administered intraperitoneally (1 ml/kg). MK-801 was dissolved in distilled water and given i.p. (1 ml/kg). Doses of compounds refer to the free base.
To determine the effects of morphine and (±)-Ro25-6981 on motor co-ordination, male Sprague Dawley rats (160-180 g) were first trained to remain for 120 s on the rotarod apparatus revolving at. 12 r.p.m. on the morning before the test. Animals then received drug treatments and 1 h later were placed on an accelerating rotarod (increasing from 4 - 40 r.p.m. during a 5 min period) and the time the rats were able to remain on the rotarod recorded.

Compound | Ratio Rotarod/ Rat Ligation (i.p.) | Ratio Rotarod/ Rat Ligation (p.o.) | further results
O=c1[nH]c2cc(Cl)ccc2c(O)c1-c1cccc(Oc2ccccc2)c1 [L-701,324] | 0.7 |  | 
C[C@@H](CN1CCC(Cc2ccccc2)CC1)[C@@H](O)c1ccc(O)cc1 (racemic) [(±)-Ro25-6981] | ≥ 26 |  | Ratio Rotarod/ Rat Ligation (i.p., listed as RO25-6981): ≥26
(±)-CP-101,606 |  | > 49 | Ratio Rotarod/ Rat Ligation (p.o., listed as CP-101,606): >49
NCC1(CC(=O)O)CCCCC1 [Gabapentin] |  | 1.5 | 
Nc1nnc(-c2cccc(Cl)c2Cl)c(N)n1 [Lamotrigine] |  | > 45 | 
CC(C(O)c1ccc(O)cc1)N1CCC(Cc2ccccc2)CC1 (stereo not shown) [Ifenprodil] | 5.3 |  | 
C[C@@H]1CN(O)C(=O)[C@@H]1N [L-687,414] | 5.4 |  | 
C[C@]12N[C@H](Cc3ccccc31)c1ccccc12 [MK-801] | 1.1 |  | 
